Reference: patent publication US20040005636A1, “Method for obtaining the binding affinities of a peptide library to a protein” (priority 2002, published 2004)
Where two headings read alike, the source gives them in different places. For some of these results: Not every detail of the peptide structures is certain; ends, links or a residue may be inferred. For some of these results: At least one structure is not confirmed: it was looked up by name or label, or the drawing left a doubt. Peptide text beside a SMILES is read from it. * marks the point of attachment. Fluorescein(5-NHCOCH2) = O=C(C*)Nc1ccc2c(c1)C(=O)OC21c2ccc(O)cc2Oc2cc(O)ccc21

How the values were obtained:
hTRβ-LBD [1] = biological target: T1, hTRβ-LBD (Homo sapiens, UniProt P10828); test: Fluorescence polarization assay of coregulator peptide binding to TRβ-LBD; conditions: for Comparison of affinity for TRβ and ERα: Tables 3, 4 and 5
T1 construct: The receptor ERα-LBD or TRβ-LBD, expressed using reported protocols; made in house
T1 sequence (P10828 217-461 limits assumed): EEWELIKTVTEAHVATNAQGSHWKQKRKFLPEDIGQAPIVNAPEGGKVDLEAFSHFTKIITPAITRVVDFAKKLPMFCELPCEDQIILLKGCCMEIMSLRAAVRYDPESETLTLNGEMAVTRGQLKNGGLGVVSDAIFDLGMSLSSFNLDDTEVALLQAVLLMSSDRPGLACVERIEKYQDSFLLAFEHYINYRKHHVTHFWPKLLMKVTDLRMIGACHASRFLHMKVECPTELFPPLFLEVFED
Experimental: (§1) The peptide library synthesized in Example 1 was assayed with ERα or TRβ receptor. Library members were kept at a constant concentration of 10 nM. A ligand was optionally added to the nuclear hormone receptor.
The receptor ERα-LBD or TRβ-LBD, expressed using reported protocols (for TR see, e.g., Darimont et al., Genes Dev., 12(21):3343-56, (1998); and for ER, see, e.g., Shiau et al., Cell, (1998), 95(7):927-937), was used. The concentration of protein varied between 0.001-20 μM in the following way. In 96 well plates, hTRβ-LBD or hERα-LBD was serially diluted from 40 μM to 0.002 μM in binding buffer (50 mM Sodium Phosphate, 150 mM NaCl, pH 7.2, 1 mM DTT, 1 mM EDTA, 0.01% NP40, 10% glycerol), containing 200 μM ligand (T3, for TRβ, or estradiol, diethylstilbestrol, genistein or tamoxifen for ERα).
(§2) Subsequently 10 μL of diluted protein was added to 10 μL of fluorescent coregulator peptide (20 nM) in 384-well plates yielding final protein concentrations of […] and 10 nM fluorescent peptide concentration. The samples were allowed to equilibriate for 30 minutes. Binding was then measured using fluorescence polarization (excitation λ at 485 nm, emission λ at 530 nm) on an Analyst AD (available from Molecular Devices).
One of the major potential perturbing phenomena in this assay is unexpected quenching or enhancement of fluorescence intensity. To control for this, both overall fluorescence intensity and fluorescence anisotropy for each sample were simultaneously monitored.
All experiments were carried out in quadruplicate, with each iteration containing the positive and negative controls, and 10-12 dose points. The data were then fit using Klotz plots to determine IC50 values using nonlinear regression analysis that fits the data to a modification of the model of Heyduk and Lee. (Heyduk et al., Proc. Natl. Acad. Sci., (1990), 1774; Heyduk et al., Nature, (1993), 364, 6437; Heyduk et al., Methods Enzymol., 274, 492. Further analysis was conducted using Hill and Scatchard plots to confirm number and homogeneity of binding sites as discussed hereinbelow.
FIGS. 1 to 3 illustrate the results of three different measurements of the binding affinity of selected members of the SRC peptide library to TRβ-LBD. FIG. 4 illustrates a Scatchard plot, which provides the Kd for the SRC2-2 peptide. FIG. 5 illustrates a Hill plot, which provides the Kd for the SRC2-2 peptide. Both the Scatchard and Hill plot correlate with the direct binding plots illustrated in FIGS. 1-3. The Scatchard data were best fit to a linear function, which indicates a single class of binding sites. The slope of the Hill plot is 1, which also indicates a single class of binding sites. Measured dissociation constants for binding of the SRC peptide library to TRβ are illustrated in Table 3. […]

hTRβ-LBD [2] = biological target: T1, hTRβ-LBD; conditions: TRβ; literature results; cited from earlier work
hERα-LBD = biological target: T2, hERα-LBD (Homo sapiens, UniProt P03372); test: Fluorescence polarization assay of coregulator peptide binding to ERα-LBD
T2 construct: The receptor ERα-LBD or TRβ-LBD, expressed using reported protocols; made in house
T2 sequence (P03372 311-547 limits assumed): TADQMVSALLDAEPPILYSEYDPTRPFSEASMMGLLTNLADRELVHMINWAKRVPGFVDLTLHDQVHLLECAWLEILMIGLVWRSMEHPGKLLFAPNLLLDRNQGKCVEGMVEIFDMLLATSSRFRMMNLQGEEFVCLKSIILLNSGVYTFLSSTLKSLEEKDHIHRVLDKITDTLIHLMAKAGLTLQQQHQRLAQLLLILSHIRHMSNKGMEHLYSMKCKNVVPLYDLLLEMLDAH
Experimental: as §1
The receptor ERα-LBD or TRβ-LBD, expressed using reported protocols (for TR see, e.g., Darimont et al., Genes Dev., 12(21):3343-56, (1998); and for ER, see, e.g., Shiau et al., Cell, (1998), 95(7):927-937), was used. The concentration of protein varied between 0.001-20 μM in the following way. […]
as §2, with “The samples were allowed to equilibriate for 30 minutes.” left out, “Devices). […]” for “Devices).”
FIG. 6 illustrates direct binding of SRC2-2 to ERα-LBD in the presence of the ligands estradiol, diethylstilbestrol and genistein. […] Measured dissociation constants for binding of members of the SRC peptide library to ERα, in the presence of 3 different ligands, are illustrated in Table 4 wherein the binding units are μM. […]

CC[C@H](C)[C@H](NC(=O)[C@H](CCCCN)NC(=O)[C@H](Cc1c[nH]cn1)NC(=O)[C@H](CCCNC(=N)N)NC(=O)[C@H](C)NC(=O)[C@@H](NC(=O)[C@H](CC(C)C)NC(=O)[C@@H](N)CSCC(=O)Nc1ccc2c(c1)C(=O)OC21c2ccc(O)cc2Oc2cc(O)ccc21)[C@@H](C)O)C(=O)N[C@@H](CC(C)C)C(=O)N[C@@H](Cc1c[nH]cn1)C(=O)N[C@@H](CCCNC(=N)N)C(=O)N[C@@H](CC(C)C)C(=O)N[C@@H](CC(C)C)C(=O)N[C@@H](CCC(N)=O)C(=O)N[C@@H](CCC(=O)O)C(=O)NCC(=O)N[C@@H](CO)C(=O)N1CCC[C@H]1C(=O)N[C@@H](CO)C(=O)N[C@@H](CC(=O)O)C(=O)O [SRC1-2]
Comparison of affinity for TRβ and ERα (hTRβ-LBD [1]): approximately the same affinity

CSCC[C@H](NC(=O)[C@H](CCC(N)=O)NC(=O)[C@H](CC(=O)O)NC(=O)[C@H](CO)NC(=O)[C@H](CCCCN)NC(=O)[C@@H](NC(=O)[C@@H](NC(=O)[C@H](CC(C)C)NC(=O)[C@H](CC(C)C)NC(=O)[C@H](CCC(N)=O)NC(=O)[C@H](CC(C)C)NC(=O)[C@H](CC(C)C)NC(=O)[C@H](CCCCN)NC(=O)[C@@H](NC(=O)[C@H](CCC(N)=O)NC(=O)CNC(=O)[C@H](CCCCN)NC(=O)[C@H](CO)NC(=O)[C@H](CC(=O)O)NC(=O)[C@@H](N)CSCC(=O)Nc1ccc2c(c1)C(=O)OC21c2ccc(O)cc2Oc2cc(O)ccc21)[C@@H](C)O)[C@@H](C)O)[C@@H](C)O)C(=O)O [SRC2-1] (H-C(Fluorescein(5-NHCOCH2))DSKGQTKLLQLLTTKSDQM-OH)
Published Results (interaction / rank order of NR boxes) (hTRβ-LBD [2]): does not interact

CC(C)C[C@H](NC(=O)[C@H](C)NC(=O)[C@H](CC(N)=O)NC(=O)[C@H](CCC(=O)O)NC(=O)[C@H](CCCCN)NC(=O)[C@H](CCCCN)NC(=O)[C@H](CCCCN)NC(=O)[C@@H](N)CSCC(=O)Nc1ccc2c(c1)C(=O)OC21c2ccc(O)cc2Oc2cc(O)ccc21)C(=O)N[C@@H](CC(C)C)C(=O)N[C@@H](CCCNC(=N)N)C(=O)N[C@@H](Cc1ccc(O)cc1)C(=O)N[C@@H](CC(C)C)C(=O)N[C@@H](CC(C)C)C(=O)N[C@@H](CC(=O)O)C(=O)N[C@@H](CCCCN)C(=O)N[C@@H](CC(=O)O)C(=O)N[C@@H](CC(=O)O)C(=O)N[C@H](C(=O)N[C@@H](CCCCN)C(=O)N[C@@H](CC(=O)O)C(=O)O)[C@@H](C)O [SRC2-3]
Comparison of affinity for TRβ and ERα (hTRβ-LBD [1]): approximately the same affinity

CC(C)C[C@H](NC(=O)[C@H](CCCCN)NC(=O)[C@H](CCCCN)NC(=O)[C@H](Cc1c[nH]cn1)NC(=O)CNC(=O)[C@H](CCCCN)NC(=O)[C@H](CO)NC(=O)[C@H](CCC(=O)O)NC(=O)[C@@H](N)CSCC(=O)Nc1ccc2c(c1)C(=O)OC21c2ccc(O)cc2Oc2cc(O)ccc21)C(=O)N[C@@H](CC(C)C)C(=O)N[C@@H](CCC(N)=O)C(=O)N[C@@H](CC(C)C)C(=O)N[C@@H](CC(C)C)C(=O)N[C@H](C(=O)N[C@@H](CS)C(=O)N[C@@H](CO)C(=O)N[C@@H](CO)C(=O)N[C@@H](CC(=O)O)C(=O)N[C@@H](CC(=O)O)C(=O)N[C@@H](CCCNC(=N)N)C(=O)O)[C@@H](C)O [SRC3-1] (H-C(Fluorescein(5-NHCOCH2))ESKGHKKLLQLLTCSSDDR-OH; N-terminus assumed)
Kd (hERα-LBD; ERα receptor in the presence of estradiol (Table 5), read-out: Binding constant ERα/Estradiol): 160 nM | Kd (hERα-LBD; ERα-LBD in the presence of estradiol, read-out: Dissociation constant for ERα, Estradiol): 160 nM | Kd (hTRβ-LBD [1]; TRβ receptor in the presence of thyroid hormone T3 (Table 5), read-out: Binding constant TRβ/T3): 870 nM | Kd (hTRβ-LBD [1]; TRβ-LBD with ligand T3, 10 nM fluorescent peptide, mean of 2 independent assays in quadruplicate, AL = assay limits, read-out: Observed Kd (dissociation constants for p160 peptides for TRβ)): 870 nM
